# Measurements taken from the supplement of paper PMC10849652.
# Chains of the proteins cited; added tags and fusions are not shown. Lines headed by an entry give the natural chain unless they say otherwise; changes in a name come on top.
# UniProt O15151: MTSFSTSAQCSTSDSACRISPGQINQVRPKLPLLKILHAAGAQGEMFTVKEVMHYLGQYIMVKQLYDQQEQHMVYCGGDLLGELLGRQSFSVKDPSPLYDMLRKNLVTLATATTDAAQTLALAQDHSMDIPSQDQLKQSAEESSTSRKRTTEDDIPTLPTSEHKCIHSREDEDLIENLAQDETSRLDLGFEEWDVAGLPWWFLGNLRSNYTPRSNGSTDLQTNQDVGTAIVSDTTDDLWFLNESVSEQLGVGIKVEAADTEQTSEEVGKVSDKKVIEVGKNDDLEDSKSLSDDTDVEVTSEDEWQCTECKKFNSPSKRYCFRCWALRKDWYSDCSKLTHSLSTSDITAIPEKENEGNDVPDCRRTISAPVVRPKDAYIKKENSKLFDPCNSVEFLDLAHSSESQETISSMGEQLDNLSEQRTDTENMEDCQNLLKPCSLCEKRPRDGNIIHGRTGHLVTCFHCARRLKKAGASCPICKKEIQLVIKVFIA
# UniProt Q05BQ5, whole entry, looked up: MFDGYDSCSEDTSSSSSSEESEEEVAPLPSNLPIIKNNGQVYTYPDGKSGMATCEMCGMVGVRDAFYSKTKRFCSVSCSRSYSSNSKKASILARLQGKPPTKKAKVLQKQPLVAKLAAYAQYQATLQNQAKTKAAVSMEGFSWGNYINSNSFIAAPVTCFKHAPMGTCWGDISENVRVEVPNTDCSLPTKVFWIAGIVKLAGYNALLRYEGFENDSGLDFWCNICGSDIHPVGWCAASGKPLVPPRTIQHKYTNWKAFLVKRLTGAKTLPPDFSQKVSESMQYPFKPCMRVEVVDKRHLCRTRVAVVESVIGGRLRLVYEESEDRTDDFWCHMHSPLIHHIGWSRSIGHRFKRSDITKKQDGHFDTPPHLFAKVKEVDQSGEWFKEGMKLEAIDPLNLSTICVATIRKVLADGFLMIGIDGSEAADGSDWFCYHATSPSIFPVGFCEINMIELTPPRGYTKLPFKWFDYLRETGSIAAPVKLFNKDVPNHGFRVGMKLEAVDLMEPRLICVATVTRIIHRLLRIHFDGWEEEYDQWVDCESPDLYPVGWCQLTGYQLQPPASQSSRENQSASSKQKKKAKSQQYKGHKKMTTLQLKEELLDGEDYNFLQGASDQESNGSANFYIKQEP
# UniProt P55083: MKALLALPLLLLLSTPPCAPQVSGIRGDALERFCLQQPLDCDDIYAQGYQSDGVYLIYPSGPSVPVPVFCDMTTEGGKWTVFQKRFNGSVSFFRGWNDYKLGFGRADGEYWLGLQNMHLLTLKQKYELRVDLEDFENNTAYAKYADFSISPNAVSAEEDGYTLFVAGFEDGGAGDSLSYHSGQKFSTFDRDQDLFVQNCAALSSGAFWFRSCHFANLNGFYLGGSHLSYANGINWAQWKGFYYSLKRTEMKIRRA
# UniProt O95243: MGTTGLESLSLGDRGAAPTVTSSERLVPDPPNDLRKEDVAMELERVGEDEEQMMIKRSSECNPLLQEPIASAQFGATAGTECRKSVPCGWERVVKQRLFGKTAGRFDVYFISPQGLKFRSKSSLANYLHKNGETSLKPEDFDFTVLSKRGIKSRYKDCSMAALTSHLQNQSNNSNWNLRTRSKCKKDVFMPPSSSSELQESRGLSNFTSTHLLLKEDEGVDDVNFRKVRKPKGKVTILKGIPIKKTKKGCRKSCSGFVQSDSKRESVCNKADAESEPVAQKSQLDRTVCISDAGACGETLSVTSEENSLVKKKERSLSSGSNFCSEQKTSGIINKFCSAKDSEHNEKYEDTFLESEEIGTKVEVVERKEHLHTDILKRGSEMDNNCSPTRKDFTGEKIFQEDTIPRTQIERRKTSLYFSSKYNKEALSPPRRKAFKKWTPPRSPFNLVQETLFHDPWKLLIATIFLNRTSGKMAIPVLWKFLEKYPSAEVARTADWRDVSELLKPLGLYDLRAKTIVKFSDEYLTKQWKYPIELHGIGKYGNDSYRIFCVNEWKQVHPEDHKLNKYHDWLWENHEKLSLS
# UniProt O75586: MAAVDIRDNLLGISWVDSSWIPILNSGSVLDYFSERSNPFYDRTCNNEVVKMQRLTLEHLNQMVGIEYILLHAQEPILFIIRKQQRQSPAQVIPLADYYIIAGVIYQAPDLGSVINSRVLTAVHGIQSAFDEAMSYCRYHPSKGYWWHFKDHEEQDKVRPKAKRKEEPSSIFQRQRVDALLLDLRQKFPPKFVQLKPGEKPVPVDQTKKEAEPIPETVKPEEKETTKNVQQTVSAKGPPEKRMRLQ
# UniProt Q86XA0: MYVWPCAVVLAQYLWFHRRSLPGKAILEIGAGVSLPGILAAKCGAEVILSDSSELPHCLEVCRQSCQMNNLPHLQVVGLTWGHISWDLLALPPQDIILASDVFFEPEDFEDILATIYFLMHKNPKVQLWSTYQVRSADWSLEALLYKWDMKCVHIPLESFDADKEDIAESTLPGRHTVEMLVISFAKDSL
# UniProt A4D2B0: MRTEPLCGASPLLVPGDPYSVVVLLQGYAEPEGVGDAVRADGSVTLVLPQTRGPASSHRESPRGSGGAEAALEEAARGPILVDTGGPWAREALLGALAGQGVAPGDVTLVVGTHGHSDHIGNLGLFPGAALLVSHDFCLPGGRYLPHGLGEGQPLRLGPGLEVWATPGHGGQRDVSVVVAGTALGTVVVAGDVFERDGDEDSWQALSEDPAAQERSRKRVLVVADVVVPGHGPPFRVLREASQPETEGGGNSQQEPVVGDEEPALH
# UniProt Q9NWA0: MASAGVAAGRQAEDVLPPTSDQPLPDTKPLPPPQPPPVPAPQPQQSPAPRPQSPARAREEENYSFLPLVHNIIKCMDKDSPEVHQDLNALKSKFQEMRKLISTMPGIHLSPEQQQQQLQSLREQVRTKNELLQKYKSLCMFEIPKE
# UniProt P50579: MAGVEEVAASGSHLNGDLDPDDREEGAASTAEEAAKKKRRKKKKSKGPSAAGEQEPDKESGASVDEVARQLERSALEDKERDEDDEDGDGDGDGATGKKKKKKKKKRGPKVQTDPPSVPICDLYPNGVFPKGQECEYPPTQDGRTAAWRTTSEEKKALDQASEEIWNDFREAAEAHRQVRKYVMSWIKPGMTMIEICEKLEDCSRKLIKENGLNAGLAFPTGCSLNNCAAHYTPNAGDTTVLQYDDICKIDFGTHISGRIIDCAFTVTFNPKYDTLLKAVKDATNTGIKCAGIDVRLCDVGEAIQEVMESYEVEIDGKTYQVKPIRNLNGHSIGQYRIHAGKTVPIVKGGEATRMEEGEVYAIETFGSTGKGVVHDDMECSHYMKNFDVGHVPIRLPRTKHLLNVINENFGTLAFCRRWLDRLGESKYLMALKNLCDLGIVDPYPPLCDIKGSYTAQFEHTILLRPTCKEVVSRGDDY
# MCTS2P, A0A3B3IRV3, UniProt A0A3B3IRV3, whole entry, looked up: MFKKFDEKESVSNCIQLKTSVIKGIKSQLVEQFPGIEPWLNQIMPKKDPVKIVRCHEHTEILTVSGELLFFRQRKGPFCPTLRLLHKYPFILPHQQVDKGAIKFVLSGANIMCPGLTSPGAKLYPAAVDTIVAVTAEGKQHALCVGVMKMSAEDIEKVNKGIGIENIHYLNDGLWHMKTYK
# UniProt Q8NEM0: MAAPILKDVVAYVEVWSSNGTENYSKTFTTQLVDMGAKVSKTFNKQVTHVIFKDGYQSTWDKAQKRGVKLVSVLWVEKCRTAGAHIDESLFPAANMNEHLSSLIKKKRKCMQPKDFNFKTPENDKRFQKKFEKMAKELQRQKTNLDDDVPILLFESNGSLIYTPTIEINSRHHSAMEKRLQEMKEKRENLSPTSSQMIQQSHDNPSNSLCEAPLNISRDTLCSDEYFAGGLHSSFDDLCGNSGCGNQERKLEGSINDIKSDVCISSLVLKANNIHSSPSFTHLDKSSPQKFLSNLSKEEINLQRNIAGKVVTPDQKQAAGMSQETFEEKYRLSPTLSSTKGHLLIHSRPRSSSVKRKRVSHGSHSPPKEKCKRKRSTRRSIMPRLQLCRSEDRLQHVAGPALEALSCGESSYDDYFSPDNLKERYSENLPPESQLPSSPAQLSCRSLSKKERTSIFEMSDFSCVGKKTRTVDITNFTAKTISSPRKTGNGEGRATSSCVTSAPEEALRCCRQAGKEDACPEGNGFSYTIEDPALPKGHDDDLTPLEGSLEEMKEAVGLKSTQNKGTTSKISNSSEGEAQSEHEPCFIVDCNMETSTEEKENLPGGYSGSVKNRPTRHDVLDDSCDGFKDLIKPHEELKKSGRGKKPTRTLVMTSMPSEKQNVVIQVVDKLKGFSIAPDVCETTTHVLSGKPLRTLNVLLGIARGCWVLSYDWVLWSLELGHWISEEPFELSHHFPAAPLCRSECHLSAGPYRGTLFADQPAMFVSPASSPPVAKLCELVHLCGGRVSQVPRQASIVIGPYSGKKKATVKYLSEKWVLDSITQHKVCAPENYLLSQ
# UniProt Q9H7H0: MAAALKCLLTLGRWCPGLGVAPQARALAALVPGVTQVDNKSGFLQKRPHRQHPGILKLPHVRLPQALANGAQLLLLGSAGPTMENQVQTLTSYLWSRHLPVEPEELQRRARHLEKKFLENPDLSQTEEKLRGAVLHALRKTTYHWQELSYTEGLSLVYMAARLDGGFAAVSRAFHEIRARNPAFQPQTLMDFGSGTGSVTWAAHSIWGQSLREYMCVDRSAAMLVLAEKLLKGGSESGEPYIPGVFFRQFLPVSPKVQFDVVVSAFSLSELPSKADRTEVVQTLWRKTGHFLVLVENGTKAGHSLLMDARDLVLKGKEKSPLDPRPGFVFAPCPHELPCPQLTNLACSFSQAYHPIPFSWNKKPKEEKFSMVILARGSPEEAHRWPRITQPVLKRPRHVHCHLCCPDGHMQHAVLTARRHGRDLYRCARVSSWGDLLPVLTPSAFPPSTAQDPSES
# UniProt O43934: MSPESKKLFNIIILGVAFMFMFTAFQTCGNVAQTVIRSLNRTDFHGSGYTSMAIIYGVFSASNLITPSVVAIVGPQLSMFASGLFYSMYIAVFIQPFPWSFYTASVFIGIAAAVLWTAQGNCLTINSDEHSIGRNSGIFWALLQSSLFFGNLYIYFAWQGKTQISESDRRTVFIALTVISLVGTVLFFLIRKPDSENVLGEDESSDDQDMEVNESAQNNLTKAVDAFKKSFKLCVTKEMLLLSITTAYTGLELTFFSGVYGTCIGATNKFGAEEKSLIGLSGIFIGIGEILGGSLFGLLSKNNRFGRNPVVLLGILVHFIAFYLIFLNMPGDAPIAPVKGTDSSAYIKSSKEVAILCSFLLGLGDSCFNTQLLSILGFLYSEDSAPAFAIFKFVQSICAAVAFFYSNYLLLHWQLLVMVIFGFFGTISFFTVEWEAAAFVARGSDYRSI
# UniProt Q9NX70: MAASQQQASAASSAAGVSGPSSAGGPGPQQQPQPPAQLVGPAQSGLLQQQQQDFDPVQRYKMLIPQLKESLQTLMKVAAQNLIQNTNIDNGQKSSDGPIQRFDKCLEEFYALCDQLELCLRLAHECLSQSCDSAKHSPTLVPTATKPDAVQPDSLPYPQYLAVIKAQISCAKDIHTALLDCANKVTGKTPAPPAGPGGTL
# UniProt Q5U5Q3: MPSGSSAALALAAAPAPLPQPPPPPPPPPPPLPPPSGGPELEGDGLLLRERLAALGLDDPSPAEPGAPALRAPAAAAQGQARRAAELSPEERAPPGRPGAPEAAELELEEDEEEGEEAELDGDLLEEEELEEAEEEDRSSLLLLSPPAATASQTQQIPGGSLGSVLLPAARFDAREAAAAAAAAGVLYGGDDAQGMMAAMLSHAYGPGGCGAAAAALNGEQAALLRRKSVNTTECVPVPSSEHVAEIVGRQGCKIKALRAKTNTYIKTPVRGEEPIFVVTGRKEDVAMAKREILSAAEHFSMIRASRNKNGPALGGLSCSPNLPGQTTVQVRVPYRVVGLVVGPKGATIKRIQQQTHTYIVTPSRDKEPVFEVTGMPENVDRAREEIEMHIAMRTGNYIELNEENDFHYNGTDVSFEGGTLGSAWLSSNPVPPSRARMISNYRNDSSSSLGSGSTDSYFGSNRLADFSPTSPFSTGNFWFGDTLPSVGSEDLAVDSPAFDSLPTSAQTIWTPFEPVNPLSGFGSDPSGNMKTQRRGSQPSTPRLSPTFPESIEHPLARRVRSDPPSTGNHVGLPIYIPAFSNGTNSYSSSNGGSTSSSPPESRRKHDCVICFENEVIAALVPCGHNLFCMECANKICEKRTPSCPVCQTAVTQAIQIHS
# UniProt A6NJ78: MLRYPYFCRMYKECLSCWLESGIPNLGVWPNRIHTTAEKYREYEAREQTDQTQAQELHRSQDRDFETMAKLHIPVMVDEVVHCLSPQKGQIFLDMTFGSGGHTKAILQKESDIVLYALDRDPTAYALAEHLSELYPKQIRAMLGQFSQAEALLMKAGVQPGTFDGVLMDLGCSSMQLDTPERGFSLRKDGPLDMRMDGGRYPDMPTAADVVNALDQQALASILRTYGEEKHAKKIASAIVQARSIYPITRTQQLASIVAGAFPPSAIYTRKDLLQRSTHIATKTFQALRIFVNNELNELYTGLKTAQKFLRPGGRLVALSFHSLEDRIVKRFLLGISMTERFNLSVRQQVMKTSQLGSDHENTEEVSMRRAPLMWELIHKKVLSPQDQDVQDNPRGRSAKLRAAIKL
# This is one part of the list.
# Columns and labels:
# Experiment in all cases: log2 fold change, soluble protein after heating vs DMSO (PISA); higher = thermal stabilisation; K562 lysate, 10 uM; active = over 0.2 and 3.5 SD of the protein, either way, in both replicates (recomputed)
# [1] = compound: NCC(=O)Nc1ccc(-n2nc(C(F)(F)F)cc2-c2ccc3c(ccc4ccccc43)c2)cc1
# Method in brief: (§1)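 K562 pellets were dounce-homogenised in PBS pH 7.4 containing 1 mM MgCl2, and the crude extract, at 1 mg/mL protein, was exposed to 10 μM compound for 30 min. Aliquots were heated for 3 min across 48°C-58°C, pooled, brought to 0.5% NP-40 at 4°C and spun at 21,000xg for 90 min, with the supernatant taken as soluble protein. TMTpro 16plex LC-MS/MS with equalised channel sums quantified that protein. Values are log-two fold changes in thermal stability relative to solvent controls, taken from duplicates.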
# [2] = compound: O=C1NC(=O)C(c2cnc3ccccn23)=C1c1cn2c3c(cc(F)cc13)CN(C(=O)N1CCCCC1)CC2
# Method in brief: as §1
# entospletinib = compound: c1cn2cc(-c3ccc4cn[nH]c4c3)nc(Nc3ccc(N4CCOCC4)cc3)c2n1 [entospletinib]
# Method in brief: as §1
# vorinostat = compound: O=C(CCCCCCC(=O)Nc1ccccc1)NO [vorinostat]
# Method in brief: as §1
# silmitasertib = compound: O=C(O)c1ccc2c(c1)nc(Nc1cccc(Cl)c1)c1ccncc12 [silmitasertib]
# Method in brief: as §1
target,measurement,setting,value
MDM4 (UniProt O15151),log2 fold change,[1],inactive: 0.329
same,log2 fold change,[2],inactive: 0.025
same,log2 fold change,entospletinib,inactive: -0.417
MBTD1 (UniProt Q05BQ5),log2 fold change,[2],inactive: 0.095
MFAP4 isoform 2 (UniProt P55083),log2 fold change,entospletinib,inactive: -0.008
MBD4 (UniProt O95243),log2 fold change,[2],inactive: -0.024
same,log2 fold change,entospletinib,inactive: 0.088
MED6 (UniProt O75586),log2 fold change,[1],inactive: -0.027
same,log2 fold change,[2],inactive: -0.08
same,log2 fold change,entospletinib,inactive: -0.159
METTL23 (UniProt Q86XA0),log2 fold change,[1],inactive: 0.177
same,log2 fold change,entospletinib,inactive: 0.046
MBLAC1 (UniProt A4D2B0),log2 fold change,[1],inactive: -0.183
same,log2 fold change,vorinostat,inactive: -0.187
same,log2 fold change,silmitasertib,inactive: 0.102
same,log2 fold change,entospletinib,inactive: -0.065
MED9 (UniProt Q9NWA0),log2 fold change,[2],inactive: 0.016
METAP2 isoform 2 (UniProt P50579),log2 fold change,entospletinib,inactive: 0.037
"MCTS2P, A0A3B3IRV3",log2 fold change,vorinostat,inactive: -0.118
same,log2 fold change,silmitasertib,inactive: -0.103
same,log2 fold change,[2],inactive: 0.072
MCPH1 (UniProt Q8NEM0),log2 fold change,[2],inactive: 0.056
METTL17 isoform 3 (UniProt Q9H7H0),log2 fold change,entospletinib,inactive: -0.05
MFSD11 (UniProt O43934),log2 fold change,vorinostat,inactive: 0.192
same,log2 fold change,silmitasertib,inactive: -0.013
MED29 (UniProt Q9NX70),log2 fold change,vorinostat,inactive: 0.024
same,log2 fold change,silmitasertib,inactive: -0.012
same,log2 fold change,[2],inactive: 0.015
MEX3C (UniProt Q5U5Q3),log2 fold change,vorinostat,inactive: 0.089
same,log2 fold change,silmitasertib,inactive: 0.03
same,log2 fold change,[2],inactive: 0.096
METTL15 (UniProt A6NJ78),log2 fold change,[1],inactive: -0.045
same,log2 fold change,[2],inactive: 0.06

# Exported as tab-separated lines: entries from further up
target	measurement	setting	value
MED9 (UniProt Q9NWA0)	log2 fold change	[2]	inactive: 0.016
METAP2 isoform 2 (UniProt P50579)	log2 fold change	entospletinib	inactive: 0.037
MCTS2P, A0A3B3IRV3	log2 fold change	vorinostat	inactive: -0.118
